Test results: patent US20110046137A1, “Pyrazole Derivatives as P2X7 Modulators” (Glaxo Group Limited, priority 2007, published 2011)
Some entries share one result that the patent states for a list of compounds.

target: T1, human recombinant P2X7 receptors (Homo sapiens, UniProt Q99572); experiment: Fluorescent Imaging Plate Reader (FLIPR) Ca Assay; type: cell-based; conditions: HEK293 cells expressing human recombinant P2X7; blocking BzATP responses; tested in one and/or the other assay
T1 construct: expressed in transfected cells; host or cells: HEK293
T1 sequence (Q99572 1-595): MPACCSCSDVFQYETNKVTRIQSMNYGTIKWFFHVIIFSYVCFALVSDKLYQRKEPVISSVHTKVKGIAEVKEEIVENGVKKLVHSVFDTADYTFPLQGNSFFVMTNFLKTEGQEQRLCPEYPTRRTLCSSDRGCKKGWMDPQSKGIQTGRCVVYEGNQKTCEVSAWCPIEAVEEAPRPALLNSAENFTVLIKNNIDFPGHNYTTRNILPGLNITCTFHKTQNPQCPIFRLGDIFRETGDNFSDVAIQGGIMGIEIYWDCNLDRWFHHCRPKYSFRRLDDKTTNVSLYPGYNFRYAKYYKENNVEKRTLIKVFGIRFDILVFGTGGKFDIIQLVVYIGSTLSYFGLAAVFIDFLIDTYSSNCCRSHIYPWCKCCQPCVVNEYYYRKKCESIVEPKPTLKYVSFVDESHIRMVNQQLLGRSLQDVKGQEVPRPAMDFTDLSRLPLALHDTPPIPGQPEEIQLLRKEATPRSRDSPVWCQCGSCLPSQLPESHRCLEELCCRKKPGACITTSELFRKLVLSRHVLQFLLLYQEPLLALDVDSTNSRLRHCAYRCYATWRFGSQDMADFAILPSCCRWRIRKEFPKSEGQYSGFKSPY

p1050 values in the FLIPR Ca Assay (human P2X7 receptor antagonist activity), > 4.7:
Cc1nn(-c2ccc(C(=O)NCC3CCOCC3)cc2)c(C)c1CC(=O)NCc1ccc(F)cc1Cl [Example 160, 4-[4-(2-{[(2-chloro-4-fluorophenyl)methyl]amino}-2-oxoethyl)-3,5-dimethyl-1H-pyrazol-1-yl]-N-(tetrahydro-2H-pyran-4-ylmethyl)benzamide]
COCCNCCn1nc(C)c(CC(=O)NCc2ccc(F)cc2Cl)c1C.O=CO [Example 142, formic acid-N-[(2-chloro-4-fluorophenyl)methyl]-2-[3,5-dimethyl-1-(2-{[2-(methyloxy)ethyl]amino}ethyl)-1H-pyrazol-4-yl]acetamide (1:1)]
Cl.O=C(Cc1cnn(CCN2CCCCC2)c1C(F)(F)F)NCc1ccc(F)cc1Cl [Example 179, N-[(2-chloro-4-fluorophenyl)methyl]-2-[1-[2-(1-piperidinyl)ethyl]-5-(trifluoromethyl)-1H-pyrazol-4-yl]acetamide hydrochloride]
Cc1c(CC(=O)NCc2ccc(F)cc2Cl)cnn1-c1ccc(F)cc1 [Example 124, N-[(2-chloro-4-fluorophenyl)methyl]-2-[1-(4-fluorophenyl)-5-methyl-1H-pyrazol-4-yl]acetamide]
Cc1nn(-c2ccccc2)c(C)c1CC(=O)NCc1ccc(F)c(F)c1F [Example 21, 2-(3,5-dimethyl-1-phenyl-1H-pyrazol-4-yl)-N-[(2,3,4-trifluorophenyl)methyl]acetamide]
Cc1nn(C(C)C)c(C)c1CC(=O)NCc1ccc(F)cc1Cl [Example 105, N-[(2-chloro-4-fluorophenyl)methyl]-2-[3,5-dimethyl-1-(1-methylethyl)-1H-pyrazol-4-yl]acetamide]
Cc1nn(-c2ccccc2)c(C)c1CC(=O)NCc1c(F)cccc1F [Example 25, N-[(2,6-difluorophenyl)methyl]-2-(3,5-dimethyl-1-phenyl-1H-pyrazol-4-yl)acetamide]
O=C(Cc1cnn(-c2ccc(F)cc2)c1)NCc1ccc(F)cc1Cl [Example 113, N-[(2-chloro-4-fluorophenyl)methyl]-2-[1-(4-fluorophenyl)-1H-pyrazol-4-yl]acetamide]
Cc1cc(C(F)(F)F)cc(-n2nc(C)c(CC(=O)NCc3ccc(F)cc3Cl)c2C)n1 [Example 67, N-[(2-chloro-4-fluorophenyl)methyl]-2-{3,5-dimethyl-1-[6-methyl-4-(trifluoromethyl)-2-pyridinyl]-1H-pyrazol-4-yl}acetamide]
Cc1nn(-c2ccc(F)cc2)c(C)c1CC(=O)NCc1ccc(F)cc1Cl [Example 48, N-[(2-chloro-4-fluorophenyl)methyl]-2-[1-(4-fluorophenyl)-3,5-dimethyl-1H-pyrazol-4-yl]acetamide]
CCc1c(CC(=O)NCc2ccc(F)cc2Cl)cnn1-c1ccc(F)cc1 [Example 183, N-[(2-chloro-4-fluorophenyl)methyl]-2-[5-ethyl-1-(4-fluorophenyl)-1H-pyrazol-4-yl]acetamide]
Cc1nn(Cc2ccc(Cl)cc2)c(C)c1CC(=O)NCc1ccc(F)cc1Cl [Example 89, N-[(2-chloro-4-fluorophenyl)methyl]-2-{1-[(4-chlorophenyl)methyl]-3,5-dimethyl-1H-pyrazol-4-yl}acetamide]
Cc1nn(-c2nccs2)c(C)c1CC(=O)NCc1ccc(F)cc1Cl [Example 70, N-[(2-chloro-4-fluorophenyl)methyl]-2-[3,5-dimethyl-1-(1,3-thiazol-2-yl)-1H-pyrazol-4-yl]acetamide]
Cc1nn(-c2ccccc2)cc1CC(=O)NCc1ccc(F)cc1Cl [Example 145, N-[(2-chloro-4-fluorophenyl)methyl]-2-(3-methyl-1-phenyl-1H-pyrazol-4-yl)acetamide]
CCc1ccccc1-n1cc(CC(=O)NCc2ccc(F)cc2Cl)cn1 [Example 116, N-[(2-chloro-4-fluorophenyl)methyl]-2-[1-(2-ethylphenyl)-1H-pyrazol-4-yl]acetamide]
Cc1nn(-c2ccccc2)c(C)c1CC(=O)NCc1c(Cl)cccc1Cl [Example 41, N-[(2,6-dichlorophenyl)methyl]-2-(3,5-dimethyl-1-phenyl-1H-pyrazol-4-yl)acetamide]
Cc1nn(C)c(C)c1CC(=O)NCc1ccc(F)cc1Cl [Example 51, N-[(2-chloro-4-fluorophenyl)methyl]-2-(1,3,5-trimethyl-1H-pyrazol-4-yl)acetamide]
Cc1nn(CCOc2ccccc2)c(C)c1CC(=O)NCc1ccc(F)cc1Cl [Example 109, N-[(2-chloro-4-fluorophenyl)methyl]-2-{3,5-dimethyl-1-[2-(phenyloxy)ethyl]-1H-pyrazol-4-yl}acetamide]
Cc1nn(-c2ccccc2)c(C)c1CC(=O)NCc1ccc(F)c(Cl)c1 [Example 7, N-[(3-chloro-4-fluorophenyl)methyl]-2-(3,5-dimethyl-1-phenyl-1H-pyrazol-4-yl)acetamide]
Cc1nn(C(C)(C)C)c(C)c1CC(=O)NCc1ccc(F)cc1Cl [Example 74, N-[(2-chloro-4-fluorophenyl)methyl]-2-[1-(1,1-dimethylethyl)-3,5-dimethyl-1H-pyrazol-4-yl]acetamide]
Cc1nn(-c2ccccc2)c(C)c1CC(=O)NCc1ccccc1-c1ccccc1 [Example 10, N-(2-biphenylylmethyl)-2-(3,5-dimethyl-1-phenyl-1H-pyrazol-4-yl)acetamide]
Cc1nn(-c2ccccc2)c(C)c1CC(=O)NCc1cccc(-c2ccccc2)c1 [Example 30, N-(3-biphenylylmethyl)-2-(3,5-dimethyl-1-phenyl-1H-pyrazol-4-yl)acetamide]
Cc1ccc(CNC(=O)Cc2c(C)nn(-c3ccccc3)c2C)c(F)c1F [Example 22, N-[(2,3-difluoro-4-methylphenyl)methyl]-2-(3,5-dimethyl-1-phenyl-1H-pyrazol-4-yl)acetamide]
Cc1nn(-c2ccc(C(N)=O)cc2)c(C)c1CC(=O)NCc1ccc(F)cc1Cl [Example 157, 4-[4-(2-{[(2-chloro-4-fluorophenyl)methyl]amino}-2-oxoethyl)-3,5-dimethyl-1H-pyrazol-1-yl]benzamide]
Cc1nn(-c2ccccc2)c(C)c1CC(=O)NCc1cc(F)ccc1C(F)(F)F [Example 45, 2-(3,5-dimethyl-1-phenyl-1H-pyrazol-4-yl)-N-{[5-fluoro-2-(trifluoromethyl)phenyl]methyl}acetamide]
Cc1nn(CCNCCO)c(C)c1CC(=O)NCc1ccc(F)cc1Cl.O=CO [Example 140, formic acid-N-[(2-chloro-4-fluorophenyl)methyl]-2-(1-{2-[(2-hydroxyethyl)amino]ethyl}-3,5-dimethyl-1H-pyrazol-4-yl)acetamide (1:1)]
Cc1ccccc1-n1cc(CC(=O)NCc2ccc(F)cc2Cl)cn1 [Example 115, N-[(2-chloro-4-fluorophenyl)methyl]-2-[1-(2-methylphenyl)-1H-pyrazol-4-yl]acetamide]
Cc1nn(CCO)c(C)c1CC(=O)NCc1cccc(Cl)c1C [Example 163, N-[(3-chloro-2-methylphenyl)methyl]-2-[1-(2-hydroxyethyl)-3,5-dimethyl-1H-pyrazol-4-yl]acetamide]
Cc1cccc(CNC(=O)Cc2c(C)nn(-c3ccccc3)c2C)c1C [Example 40, N-[(2,3-dimethylphenyl)methyl]-2-(3,5-dimethyl-1-phenyl-1H-pyrazol-4-yl)acetamide]
Cc1nn(-c2ccc(Br)cn2)c(C)c1CC(=O)NCc1ccc(F)cc1Cl [Example 68, 2-[1-(5-bromo-2-pyridinyl)-3,5-dimethyl-1H-pyrazol-4-yl]-N-[(2-chloro-4-fluorophenyl)methyl]acetamide]
Cc1nn(-c2cccc(Cl)c2)c(C)c1CC(=O)NCc1ccc(F)cc1Cl [Example 57, N-[(2-chloro-4-fluorophenyl)methyl]-2-[1-(3-chlorophenyl)-3,5-dimethyl-1H-pyrazol-4-yl]acetamide]
